System: rekombinante Oxidoreduktase aus Metschnikowia zobellii
Assay type: biochemical

Compound | Enantiomerenüberschuss des erhaltenen Produkts [%]
CCOC(=O)[C@H](O)CCc1ccccc1 [(R)-2-Hydroxy-4-phenyl-buttersäureethylester] | > 90
O[C@@H](CCl)c1ccccc1 [(1R)-2-Chlor-1-phenyl-ethan-1-ol] | > 94
CCOC(=O)CCCC[C@@H](O)CCCl [(R)-8-Chlor-6-hydroxy-octansäureethylester] | > 97
CCOC(=O)[C@H](O)c1ccccc1 [(1R)-Ethylmandelat] | > 99

Reference: patent EP1685248B1, “OXIDOREDUCTASE FROM METSCHNIKOWIA ZOBELLII” (IEP GmbH, priority 2003, dated 2005)
